In the supplement of paper PMC12823440, “Inhibitors supercharge kinase turnover through native proteolytic circuits” (Nature, 2025):
Structures can show the parent of a compound that is named as a salt. The list shows a part of the results. Hit calls seldom repeat between salt and free forms of one compound.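 In K562 cells expressing nanoluciferase-fused kinases, luminescence was recorded at 4 h intervals between 2 and 18 h, normalized as percent of control with DMSO at 100% and a positive control at 0%. A significant (2 sigma) signal drop marks a time point as decreased. The authors' rule for a hit is not shown and takes in more than the number of time points.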

The chains behind the UniProt entries cited, without tags or fusion partners.
UniProt P29317, whole entry: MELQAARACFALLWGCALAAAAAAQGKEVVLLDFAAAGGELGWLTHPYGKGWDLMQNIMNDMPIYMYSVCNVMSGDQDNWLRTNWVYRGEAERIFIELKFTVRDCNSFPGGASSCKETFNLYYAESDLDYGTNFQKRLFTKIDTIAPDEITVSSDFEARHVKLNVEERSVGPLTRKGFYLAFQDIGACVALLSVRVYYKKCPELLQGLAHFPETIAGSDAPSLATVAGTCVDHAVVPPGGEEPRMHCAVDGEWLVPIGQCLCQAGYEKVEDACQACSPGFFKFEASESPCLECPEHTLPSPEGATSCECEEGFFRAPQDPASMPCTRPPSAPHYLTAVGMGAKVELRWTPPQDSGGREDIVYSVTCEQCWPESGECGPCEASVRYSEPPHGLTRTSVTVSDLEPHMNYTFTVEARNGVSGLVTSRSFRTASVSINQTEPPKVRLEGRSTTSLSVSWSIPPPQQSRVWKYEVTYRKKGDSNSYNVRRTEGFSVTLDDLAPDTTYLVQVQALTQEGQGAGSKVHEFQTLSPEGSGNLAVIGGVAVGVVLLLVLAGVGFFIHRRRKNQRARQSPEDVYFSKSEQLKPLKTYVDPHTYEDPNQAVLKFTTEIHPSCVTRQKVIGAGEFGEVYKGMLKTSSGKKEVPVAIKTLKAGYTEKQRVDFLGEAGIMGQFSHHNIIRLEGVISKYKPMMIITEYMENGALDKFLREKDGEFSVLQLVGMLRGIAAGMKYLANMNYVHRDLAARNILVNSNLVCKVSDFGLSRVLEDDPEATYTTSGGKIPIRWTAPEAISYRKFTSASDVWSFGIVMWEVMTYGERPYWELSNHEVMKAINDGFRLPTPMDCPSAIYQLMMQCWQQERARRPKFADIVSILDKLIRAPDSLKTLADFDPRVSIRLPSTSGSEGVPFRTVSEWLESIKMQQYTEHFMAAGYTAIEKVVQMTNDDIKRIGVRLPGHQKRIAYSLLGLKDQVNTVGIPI
UniProt P21860, whole entry: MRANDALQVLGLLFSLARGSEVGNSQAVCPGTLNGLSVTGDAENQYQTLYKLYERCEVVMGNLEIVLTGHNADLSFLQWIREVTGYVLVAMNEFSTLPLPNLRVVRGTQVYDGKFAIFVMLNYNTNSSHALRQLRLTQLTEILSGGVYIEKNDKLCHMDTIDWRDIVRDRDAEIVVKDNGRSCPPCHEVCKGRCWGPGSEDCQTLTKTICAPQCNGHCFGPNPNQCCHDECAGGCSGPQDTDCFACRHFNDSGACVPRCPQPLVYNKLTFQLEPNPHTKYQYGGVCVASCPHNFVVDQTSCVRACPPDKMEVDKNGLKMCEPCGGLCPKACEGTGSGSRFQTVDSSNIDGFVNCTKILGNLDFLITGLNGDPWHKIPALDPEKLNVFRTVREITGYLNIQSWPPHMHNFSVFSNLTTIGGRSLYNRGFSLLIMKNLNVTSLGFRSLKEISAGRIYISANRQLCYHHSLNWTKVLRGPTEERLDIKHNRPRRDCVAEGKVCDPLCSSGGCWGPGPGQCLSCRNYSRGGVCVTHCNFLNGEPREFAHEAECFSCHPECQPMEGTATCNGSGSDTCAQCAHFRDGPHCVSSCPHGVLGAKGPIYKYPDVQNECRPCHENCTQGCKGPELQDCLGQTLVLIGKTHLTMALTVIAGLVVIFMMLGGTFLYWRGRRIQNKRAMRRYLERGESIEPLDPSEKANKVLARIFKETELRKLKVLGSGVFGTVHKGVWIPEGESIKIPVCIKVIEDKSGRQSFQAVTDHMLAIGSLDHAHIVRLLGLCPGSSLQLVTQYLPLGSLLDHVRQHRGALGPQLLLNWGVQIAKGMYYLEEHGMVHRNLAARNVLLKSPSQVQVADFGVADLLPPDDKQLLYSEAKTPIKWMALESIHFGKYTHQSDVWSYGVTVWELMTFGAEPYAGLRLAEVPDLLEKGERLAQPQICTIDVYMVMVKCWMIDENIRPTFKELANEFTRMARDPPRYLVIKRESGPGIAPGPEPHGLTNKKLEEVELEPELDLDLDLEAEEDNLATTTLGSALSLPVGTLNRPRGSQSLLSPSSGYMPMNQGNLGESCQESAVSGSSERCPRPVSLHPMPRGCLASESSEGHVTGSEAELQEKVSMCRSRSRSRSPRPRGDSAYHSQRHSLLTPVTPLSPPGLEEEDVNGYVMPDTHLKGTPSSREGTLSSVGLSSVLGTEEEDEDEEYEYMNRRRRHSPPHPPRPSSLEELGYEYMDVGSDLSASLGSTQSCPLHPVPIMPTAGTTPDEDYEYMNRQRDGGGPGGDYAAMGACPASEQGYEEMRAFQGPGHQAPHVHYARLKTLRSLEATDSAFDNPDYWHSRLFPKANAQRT
UniProt Q15303, whole entry R711C: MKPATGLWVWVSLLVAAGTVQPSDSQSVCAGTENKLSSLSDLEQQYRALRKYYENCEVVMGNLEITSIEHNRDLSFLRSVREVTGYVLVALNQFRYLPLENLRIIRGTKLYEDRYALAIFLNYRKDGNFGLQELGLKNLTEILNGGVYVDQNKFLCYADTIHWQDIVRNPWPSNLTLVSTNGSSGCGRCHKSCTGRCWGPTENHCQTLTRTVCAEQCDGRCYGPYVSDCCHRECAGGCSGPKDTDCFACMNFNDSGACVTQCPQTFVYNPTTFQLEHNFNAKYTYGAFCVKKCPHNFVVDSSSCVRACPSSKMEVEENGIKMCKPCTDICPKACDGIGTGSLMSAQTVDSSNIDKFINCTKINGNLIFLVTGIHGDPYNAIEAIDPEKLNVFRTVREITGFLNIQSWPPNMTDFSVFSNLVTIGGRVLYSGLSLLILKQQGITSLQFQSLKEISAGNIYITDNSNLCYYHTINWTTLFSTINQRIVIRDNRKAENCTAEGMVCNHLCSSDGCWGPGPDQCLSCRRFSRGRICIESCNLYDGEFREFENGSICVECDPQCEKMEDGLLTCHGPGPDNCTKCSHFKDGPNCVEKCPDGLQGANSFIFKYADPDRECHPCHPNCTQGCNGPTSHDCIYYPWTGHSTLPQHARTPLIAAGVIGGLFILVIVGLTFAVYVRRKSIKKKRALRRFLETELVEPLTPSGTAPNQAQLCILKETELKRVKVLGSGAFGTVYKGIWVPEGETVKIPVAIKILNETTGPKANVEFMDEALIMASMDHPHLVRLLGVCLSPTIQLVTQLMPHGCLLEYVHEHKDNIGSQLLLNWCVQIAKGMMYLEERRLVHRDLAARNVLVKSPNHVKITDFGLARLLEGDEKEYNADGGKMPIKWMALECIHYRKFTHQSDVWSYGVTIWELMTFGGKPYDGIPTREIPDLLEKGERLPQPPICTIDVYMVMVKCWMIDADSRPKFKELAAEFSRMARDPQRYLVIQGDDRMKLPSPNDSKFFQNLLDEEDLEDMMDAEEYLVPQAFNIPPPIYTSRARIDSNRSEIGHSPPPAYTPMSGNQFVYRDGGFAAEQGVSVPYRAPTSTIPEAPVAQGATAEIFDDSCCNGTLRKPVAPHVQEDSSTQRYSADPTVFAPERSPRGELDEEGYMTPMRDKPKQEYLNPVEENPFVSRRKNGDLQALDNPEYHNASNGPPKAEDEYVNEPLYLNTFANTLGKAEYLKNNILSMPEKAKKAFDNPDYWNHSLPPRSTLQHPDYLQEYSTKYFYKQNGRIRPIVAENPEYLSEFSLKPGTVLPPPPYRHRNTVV

What was measured:
Experiment in all cases: kinase-Nluc reporter destabilization hit call (1 = scored as downregulated) (binary); higher = compound decreases kinase abundance
[1] = molecular target: EPHA2 (UniProt P29317); details: K562, 2-18 h
[2] = molecular target: ERBB3 (UniProt P21860); details: K562, 2-18 h
[3] = molecular target: ERBB4_R711C (clone: ERBB4_mut) (UniProt Q15303); details: K562, 2-18 h
[4] = molecular target: EGFR (UniProt P00533); details: 10 µM; K562; 2-18 h
[5] = molecular target: EGFR_G719S (UniProt P00533); details: 10 µM; K562; 2-18 h
[6] = molecular target: EGFR_G719S_T790M (UniProt P00533); details: 10 µM; K562; 2-18 h
[7] = molecular target: EGFR_L718V (UniProt P00533); details: 10 µM; K562; 2-18 h
[8] = molecular target: EGFR_L858R (UniProt P00533); details: 10 µM; K562; 2-18 h
[9] = molecular target: EGFR_L861Q (UniProt P00533); details: 10 µM; K562; 2-18 h
[10] = molecular target: EGFR_T790M (UniProt P00533); details: 10 µM; K562; 2-18 h

## CC(C)n1nc(-c2cc3cc(O)ccc3[nH]2)c2c(N)ncnc21 [Torkinib]
[1]; 2.5 µM
  kinase-Nluc reporter destabilization hit call: inactive: 0
[2]; 2.5 µM
  kinase-Nluc reporter destabilization hit call: inactive: 0
[3]; 2.5 µM
  kinase-Nluc reporter destabilization hit call: inactive: 0

## CCCCCCCCCCCCc1ccc(S(=O)(=O)Nc2nncs2)cc1
[4]
  kinase-Nluc reporter destabilization hit call: inactive: 0
[5]
  kinase-Nluc reporter destabilization hit call: inactive: 0
[6]
  kinase-Nluc reporter destabilization hit call: inactive: 0
[7]
  kinase-Nluc reporter destabilization hit call: inactive: 0
[8]
  kinase-Nluc reporter destabilization hit call: inactive: 0
[9]
  kinase-Nluc reporter destabilization hit call: inactive: 0
[10]
  kinase-Nluc reporter destabilization hit call: inactive: 0
[1]; 10 µM
  kinase-Nluc reporter destabilization hit call: inactive: 0
[2]; 10 µM
  kinase-Nluc reporter destabilization hit call: inactive: 0
[3]; 10 µM
  kinase-Nluc reporter destabilization hit call: inactive: 0

## COc1cc2ncnc(Nc3ccc(F)c(Cl)c3)c2cc1OCCCN1CCOCC1 [Gefitinib]
[1]; 10 µM
  kinase-Nluc reporter destabilization hit call: inactive: 0
[2]; 10 µM
  kinase-Nluc reporter destabilization hit call: inactive: 0
[3]; 10 µM
  kinase-Nluc reporter destabilization hit call: inactive: 0

## Cc1ccc2c(=O)c3cccc(CC(=O)O)c3oc2c1C [Vadimezan]
[4]
  kinase-Nluc reporter destabilization hit call: inactive: 0
[5]
  kinase-Nluc reporter destabilization hit call: inactive: 0
[6]
  kinase-Nluc reporter destabilization hit call: inactive: 0
[7]
  kinase-Nluc reporter destabilization hit call: inactive: 0
[8]
  kinase-Nluc reporter destabilization hit call: inactive: 0
[9]
  kinase-Nluc reporter destabilization hit call: inactive: 0
[10]
  kinase-Nluc reporter destabilization hit call: inactive: 0
[1]; 10 µM
  kinase-Nluc reporter destabilization hit call: inactive: 0
[2]; 10 µM
  kinase-Nluc reporter destabilization hit call: inactive: 0
[3]; 10 µM
  kinase-Nluc reporter destabilization hit call: inactive: 0

## COc1nccc(-c2c(-c3ccc(F)cc3)ncn2C2CCNCC2)n1
[1]; 10 µM
  kinase-Nluc reporter destabilization hit call: inactive: 0
[2]; 10 µM
  kinase-Nluc reporter destabilization hit call: inactive: 0
[3]; 10 µM
  kinase-Nluc reporter destabilization hit call: inactive: 0

## Cc1cc(Nc2cc(N3CCN(C)CC3)nc(/C=C/c3ccccc3)n2)n[nH]1 [ENMD-2076 (Tartrate)]
[1]; 2.5 µM
  kinase-Nluc reporter destabilization hit call: inactive: 0
[2]; 2.5 µM
  kinase-Nluc reporter destabilization hit call: inactive: 0
[3]; 2.5 µM
  kinase-Nluc reporter destabilization hit call: inactive: 0

## C=CC(=O)Nc1cc2c(Nc3ccc(F)c(Cl)c3)ncnc2cc1OCCCN1CCOCC1 [Canertinib (dihydrochloride)]
[1]; 2.5 µM
  kinase-Nluc reporter destabilization hit call: inactive: 0
[2]; 2.5 µM
  kinase-Nluc reporter destabilization hit call: inactive: 0

## C[C@@]1(C(=O)Nc2ccc(F)nc2)CCCN1c1nc(Nc2cc(C3CC3)n[nH]2)c2cccn2n1
[4]
  kinase-Nluc reporter destabilization hit call: inactive: 0
[5]
  kinase-Nluc reporter destabilization hit call: inactive: 0
[6]
  kinase-Nluc reporter destabilization hit call: inactive: 0
[7]
  kinase-Nluc reporter destabilization hit call: inactive: 0
[8]
  kinase-Nluc reporter destabilization hit call: inactive: 0
[9]
  kinase-Nluc reporter destabilization hit call: inactive: 0
[10]
  kinase-Nluc reporter destabilization hit call: inactive: 0
[2]; 10 µM
  kinase-Nluc reporter destabilization hit call: inactive: 0
[3]; 10 µM
  kinase-Nluc reporter destabilization hit call: inactive: 0

## CCOc1nc(NC(=O)Cc2cc(OC)ccc2OC)cc(N)c1C#N [JNK Inhibitor VIII]
[1]; 10 µM
  kinase-Nluc reporter destabilization hit call: inactive: 0
[2]; 10 µM
  kinase-Nluc reporter destabilization hit call: inactive: 0
[3]; 10 µM
  kinase-Nluc reporter destabilization hit call: inactive: 0

## O=S(=O)(c1cccc2c(O)nccc12)N1CCCNCC1 [Hydroxyfasudil]
[1]; 10 µM
  kinase-Nluc reporter destabilization hit call: inactive: 0
[2]; 10 µM
  kinase-Nluc reporter destabilization hit call: inactive: 0
[3]; 10 µM
  kinase-Nluc reporter destabilization hit call: inactive: 0

## COc1cc2/c(=N/c3ccc(Br)cc3F)nc[nH]c2cc1OCC1CCN(C)CC1 [Vandetanib]
[1]; 2.5 µM
  kinase-Nluc reporter destabilization hit call: inactive: 0
[2]; 2.5 µM
  kinase-Nluc reporter destabilization hit call: inactive: 0
[3]; 2.5 µM
  kinase-Nluc reporter destabilization hit call: inactive: 0

## Cc1cc(Nc2cc(N3CCN(C)CC3)nc(/C=C/c3ccccc3)n2)n[nH]1
[1]; 2.5 µM
  kinase-Nluc reporter destabilization hit call: inactive: 0
[2]; 2.5 µM
  kinase-Nluc reporter destabilization hit call: inactive: 0
[3]; 2.5 µM
  kinase-Nluc reporter destabilization hit call: inactive: 0

## C[C@@H]1CN(C(=O)Nc2ccc(-c3nc(N4CCOCC4)c4cnn(CCCCCCC(=O)NO)c4n3)cc2)CCO1 [HDACs/mTOR Inhibitor 1]
[4]
  kinase-Nluc reporter destabilization hit call: inactive: 0
[5]
  kinase-Nluc reporter destabilization hit call: inactive: 0
[6]
  kinase-Nluc reporter destabilization hit call: inactive: 0
[7]
  kinase-Nluc reporter destabilization hit call: inactive: 0
[8]
  kinase-Nluc reporter destabilization hit call: inactive: 0
[9]
  kinase-Nluc reporter destabilization hit call: inactive: 0
[10]
  kinase-Nluc reporter destabilization hit call: inactive: 0
[1]; 10 µM
  kinase-Nluc reporter destabilization hit call: inactive: 0
[2]; 10 µM
  kinase-Nluc reporter destabilization hit call: inactive: 0
[3]; 10 µM
  kinase-Nluc reporter destabilization hit call: inactive: 0

## O=C1Cc2c([nH]c3ccc(Br)cc23)-c2ccccc2N1 [Kenpaullone]
[1]; 10 µM
  kinase-Nluc reporter destabilization hit call: inactive: 0
[2]; 10 µM
  kinase-Nluc reporter destabilization hit call: inactive: 0
[3]; 10 µM
  kinase-Nluc reporter destabilization hit call: inactive: 0

## COc1ccc(CNC(=O)Nc2ncc([N+](=O)[O-])s2)cc1
[1]; 2.5 µM
  kinase-Nluc reporter destabilization hit call: inactive: 0
[2]; 2.5 µM
  kinase-Nluc reporter destabilization hit call: inactive: 0
[3]; 2.5 µM
  kinase-Nluc reporter destabilization hit call: inactive: 0

## NC(=O)c1c(OCc2c(F)cc(Br)cc2F)nsc1NC(=O)NCCCCN1CCCC1
[1]; 2.5 µM
  kinase-Nluc reporter destabilization hit call: inactive: 0
[2]; 2.5 µM
  kinase-Nluc reporter destabilization hit call: inactive: 0
[3]; 2.5 µM
  kinase-Nluc reporter destabilization hit call: inactive: 0

## CC1(C)CNc2cc(NC(=O)c3cccnc3NCc3ccncc3)ccc21 [Motesanib]
[1]; 2.5 µM
  kinase-Nluc reporter destabilization hit call: inactive: 0
[2]; 2.5 µM
  kinase-Nluc reporter destabilization hit call: inactive: 0
[3]; 2.5 µM
  kinase-Nluc reporter destabilization hit call: inactive: 0

## CC(C)(C)n1nc(-c2ccc(Cl)cc2)c2c(N)ncnc21
[1]; 10 µM
  kinase-Nluc reporter destabilization hit call: inactive: 0
[2]; 10 µM
  kinase-Nluc reporter destabilization hit call: inactive: 0
[3]; 10 µM
  kinase-Nluc reporter destabilization hit call: inactive: 0

## O=C(c1ccc(/C=C/c2n[nH]c3ccccc23)cc1)N1CCNCC1
[1]; 2.5 µM
  kinase-Nluc reporter destabilization hit call: inactive: 0
[2]; 2.5 µM
  kinase-Nluc reporter destabilization hit call: inactive: 0
[3]; 2.5 µM
  kinase-Nluc reporter destabilization hit call: inactive: 0

## O=S(=O)(c1cccc2c(O)nccc12)N1CCCNCC1 [Hydroxyfasudil (hydrochloride)]
[1]; 10 µM
  kinase-Nluc reporter destabilization hit call: inactive: 0
[2]; 10 µM
  kinase-Nluc reporter destabilization hit call: inactive: 0
[3]; 10 µM
  kinase-Nluc reporter destabilization hit call: inactive: 0

## Cn1cc(/C=C2\C(=O)Nc3cccnc32)c2ccccc21
[1]; 10 µM
  kinase-Nluc reporter destabilization hit call: inactive: 0
[2]; 10 µM
  kinase-Nluc reporter destabilization hit call: inactive: 0
[3]; 10 µM
  kinase-Nluc reporter destabilization hit call: inactive: 0

## O=C1NCCc2[nH]c(-c3ccncc3)cc21
[1]; 2.5 µM
  kinase-Nluc reporter destabilization hit call: inactive: 0
[2]; 2.5 µM
  kinase-Nluc reporter destabilization hit call: inactive: 0
[3]; 2.5 µM
  kinase-Nluc reporter destabilization hit call: inactive: 0

## N#CC(=Cc1cc(Cl)cc(Cl)c1)c1cccnc1
[4]
  kinase-Nluc reporter destabilization hit call: inactive: 0
[5]
  kinase-Nluc reporter destabilization hit call: inactive: 0
[1]; 10 µM
  kinase-Nluc reporter destabilization hit call: inactive: 0

## Cc1nc(Nc2ncc(C(=O)Nc3c(C)cccc3Cl)s2)cc(N2CCN(CCO)CC2)n1 [Dasatinib]
[2]; 2.5 µM
  kinase-Nluc reporter destabilization hit call: inactive: 0
[3]; 2.5 µM
  kinase-Nluc reporter destabilization hit call: inactive: 0

## Nc1ncnc2n[nH]c(-c3ccc(Oc4ccccc4)cc3)c12 [Ibrutinib deacryloylpiperidine]
[1]; 10 µM
  kinase-Nluc reporter destabilization hit call: inactive: 0
[2]; 10 µM
  kinase-Nluc reporter destabilization hit call: inactive: 0
[3]; 10 µM
  kinase-Nluc reporter destabilization hit call: inactive: 0

## Nc1ncnc2c1c(-c1cnc3[nH]ccc3c1)nn2C1CCCC1
[1]; 2.5 µM
  kinase-Nluc reporter destabilization hit call: inactive: 0
[2]; 2.5 µM
  kinase-Nluc reporter destabilization hit call: inactive: 0
[3]; 2.5 µM
  kinase-Nluc reporter destabilization hit call: inactive: 0

## COc1cc2ncnc(Nc3cccc(Br)c3)c2cc1OC
[1]; 10 µM
  kinase-Nluc reporter destabilization hit call: inactive: 0
[2]; 10 µM
  kinase-Nluc reporter destabilization hit call: inactive: 0
[3]; 10 µM
  kinase-Nluc reporter destabilization hit call: inactive: 0

## CNC(=O)c1cc(Oc2ccc(NC(=O)Nc3ccc(Cl)c(C(F)(F)F)c3)cc2)ccn1 [Sorafenib (Tosylate)]
[1]; 10 µM
  kinase-Nluc reporter destabilization hit call: inactive: 0
[2]; 10 µM
  kinase-Nluc reporter destabilization hit call: inactive: 0
[3]; 10 µM
  kinase-Nluc reporter destabilization hit call: inactive: 0

## CC1(C)CNc2cc(NC(=O)c3cccnc3NCc3ccncc3)ccc21 [Motesanib (Diphosphate)]
[1]; 2.5 µM
  kinase-Nluc reporter destabilization hit call: inactive: 0
[2]; 2.5 µM
  kinase-Nluc reporter destabilization hit call: inactive: 0
[3]; 2.5 µM
  kinase-Nluc reporter destabilization hit call: inactive: 0

## CCN(CC)CCNC(=O)c1c(C)[nH]c(/C=C2\C(=O)Nc3ccc(F)cc32)c1C [Sunitinib]
[1]; 2.5 µM
  kinase-Nluc reporter destabilization hit call: inactive: 0
[2]; 2.5 µM
  kinase-Nluc reporter destabilization hit call: inactive: 0
[3]; 2.5 µM
  kinase-Nluc reporter destabilization hit call: inactive: 0

## CNC(=O)c1cc(Oc2ccc(NC(=O)Nc3ccc(Cl)c(C(F)(F)F)c3)cc2)ccn1 [Sorafenib]
[1]; 2.5 µM
  kinase-Nluc reporter destabilization hit call: inactive: 0
[2]; 2.5 µM
  kinase-Nluc reporter destabilization hit call: inactive: 0
[3]; 2.5 µM
  kinase-Nluc reporter destabilization hit call: inactive: 0

## CCOc1cc2ncc(C#N)c(Nc3ccc(F)c(Cl)c3)c2cc1NC(=O)/C=C/CN(C)C [Pelitinib]
[1]; 2.5 µM
  kinase-Nluc reporter destabilization hit call: active: 1
[2]; 2.5 µM
  kinase-Nluc reporter destabilization hit call: inactive: 0
[3]; 2.5 µM
  kinase-Nluc reporter destabilization hit call: inactive: 0

## C=CC(=O)Nc1cc2c(Nc3ccc(F)c(Cl)c3)ncnc2cc1OCCCN1CCOCC1 [Canertinib]
[1]; 10 µM
  kinase-Nluc reporter destabilization hit call: inactive: 0
[2]; 10 µM
  kinase-Nluc reporter destabilization hit call: inactive: 0

## Cc1ccc(-n2nc(C(C)(C)C)cc2NC(=O)Nc2ccc(OCCN3CCOCC3)c3ccccc23)cc1 [Doramapimod]
[4]
  kinase-Nluc reporter destabilization hit call: inactive: 0
[5]
  kinase-Nluc reporter destabilization hit call: inactive: 0
[6]
  kinase-Nluc reporter destabilization hit call: inactive: 0
[7]
  kinase-Nluc reporter destabilization hit call: inactive: 0
[8]
  kinase-Nluc reporter destabilization hit call: inactive: 0
[9]
  kinase-Nluc reporter destabilization hit call: inactive: 0
[10]
  kinase-Nluc reporter destabilization hit call: inactive: 0
[2]; 10 µM
  kinase-Nluc reporter destabilization hit call: inactive: 0
[3]; 10 µM
  kinase-Nluc reporter destabilization hit call: inactive: 0
